{"source": "PubChem BioAssay AID1259308 (NCATS, 2017)", "screen": "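Candidate targets for better recombinant protein yield in mammalian cells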 (primary screen)", "cell system": "human HEK293 embryonic kidney cells stably expressing firefly luciferase (HEK-CMV-Luc2-Hygro)", "reagent": "single siRNA against human genes, 0.8 pmol siRNA per well", "timing": "72 h", "measurement": "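Luciferase light (ONE-Glo) measured on one replicate plate set and viability (CellTiter-Glo) on the other, scaled to a negative control siRNA, with robust z-scores and luciferase per cell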", "direction": "total luciferase, z-score and total luciferase, % of control: higher = more reporter protein produced", "hit rule": "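Active when the median/MAD z-score for overall luciferase is greater than 3; a gene was taken forward for validation with new siRNAs if at least two of its three siRNAs passed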", "calls": "active = raised luciferase; inactive = no rise", "note": "Here is an unselected part of about 59,000 reagents tested. Of all reagents, about 1,510 (2.6%) were called active. 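Calls use total luciferase alone and ignore viability, so some active siRNAs may act by altering cell number.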 A number with no mark means an inactive call. The numbers tell different reagents against one gene apart. Further read-outs or replicates are left out here."}
{"gene knocked down":"PRPF4BP1 (PRPF4B pseudogene 1)","siRNA no.":1,"total luciferase, z-score":0.154,"total luciferase, % of control":84.9}
{"gene knocked down":"PRPF4BP1 (PRPF4B pseudogene 1)","siRNA no.":2,"total luciferase, z-score":0.218,"total luciferase, % of control":86.2}
{"gene knocked down":"PRPF4BP1 (PRPF4B pseudogene 1)","siRNA no.":3,"total luciferase, z-score":-1.6,"total luciferase, % of control":50.1}
{"gene knocked down":"YIF1B","siRNA no.":1,"total luciferase, z-score":0.0525,"total luciferase, % of control":82.9}
{"gene knocked down":"YIF1B","siRNA no.":2,"total luciferase, z-score":1.88,"total luciferase, % of control":119}
{"gene knocked down":"YIF1B","siRNA no.":3,"total luciferase, z-score":-0.816,"total luciferase, % of control":65.7}
{"gene knocked down":"YIF1B","siRNA no.":4,"total luciferase, z-score":0.0495,"total luciferase, % of control":82.9}
{"gene knocked down":"YIF1B","siRNA no.":5,"total luciferase, z-score":"3.36 (active)","total luciferase, % of control":149}
{"gene knocked down":"YIF1B","siRNA no.":6,"total luciferase, z-score":-0.179,"total luciferase, % of control":78.3}
{"gene knocked down":"TCEA2 (transcription elongation factor A2)","siRNA no.":1,"total luciferase, z-score":-0.508,"total luciferase, % of control":71.8}
{"gene knocked down":"TCEA2 (transcription elongation factor A2)","siRNA no.":2,"total luciferase, z-score":-1.21,"total luciferase, % of control":57.7}
{"gene knocked down":"TCEA2 (transcription elongation factor A2)","siRNA no.":3,"total luciferase, z-score":-0.63,"total luciferase, % of control":69.4}
{"gene knocked down":"PGBD1 (piggyBac transposable element derived 1)","siRNA no.":1,"total luciferase, z-score":0.582,"total luciferase, % of control":93.5}
{"gene knocked down":"PGBD1 (piggyBac transposable element derived 1)","siRNA no.":2,"total luciferase, z-score":-0.664,"total luciferase, % of control":68.7}
{"gene knocked down":"PGBD1 (piggyBac transposable element derived 1)","siRNA no.":3,"total luciferase, z-score":0.342,"total luciferase, % of control":88.7}
{"gene knocked down":"ZBTB43 (zinc finger and BTB domain containing 43)","siRNA no.":1,"total luciferase, z-score":-1.69,"total luciferase, % of control":48.2}
{"gene knocked down":"ZBTB43 (zinc finger and BTB domain containing 43)","siRNA no.":2,"total luciferase, z-score":-1.03,"total luciferase, % of control":61.5}
{"gene knocked down":"ZBTB43 (zinc finger and BTB domain containing 43)","siRNA no.":3,"total luciferase, z-score":0.646,"total luciferase, % of control":94.7}
{"gene knocked down":"PHTF1 (putative homeodomain transcription factor 1)","siRNA no.":1,"total luciferase, z-score":-0.365,"total luciferase, % of control":74.6}
{"gene knocked down":"PHTF1 (putative homeodomain transcription factor 1)","siRNA no.":2,"total luciferase, z-score":"3.01 (active)","total luciferase, % of control":142}
{"gene knocked down":"PHTF1 (putative homeodomain transcription factor 1)","siRNA no.":3,"total luciferase, z-score":-0.0267,"total luciferase, % of control":81.4}

Copied from the list.
TCEA2 (transcription elongation factor A2) #2, total luciferase, % of control = 57.7
Under “total luciferase, % of control”, PHTF1 (putative homeodomain transcription factor 1) #1 has 74.6
